Consider one molecule from publication PMC4979527, “Post-translational allosteric activation of the P2X7 receptor through glycosaminoglycan chains of CD44 proteoglycans” (Cell Death Discovery, 2015).

This test addresses P2X7 receptor (Chinese hamster (endogenous in CHO-K1)). Briefly: co-IP; 500 ug whole CHO-K1 cell lysate (non-denaturing buffer: 20 mM Tris pH 7.4, 2 mM EDTA, 137 mM NaCl, 1% Nonidet-P40) incubated with polyclonal anti-P2X7 antibody overnight at 4 C, protein A/G PLUS-Agarose 4 h at 4 C, washed three times with PBS; blotted with anti-P2X7 and anti-CD44.

These are yes or no findings as the source states them, for the method shown. Binding seen in cells or lysates may run through a third protein. Binding can be weak; no strength is given.

B1: soluble CD44 ectodomain (60-kDa form of CD44) (domain or fragment, UniProt P20944 23-269)
chain: QIDLNITCRYAGVFHVEKNGRYSISRTEAADLCQAFNSTLPTMDQMVMALSKGFETCRYGFIEGHVVIPRIQPNAICAANHTGVYILTSNTSHYDTYCFNASAPLEEDCTSVTDLPNSFEGPVTITIVNRDGTRYSKKGEYRTHQEDIDASNTTDDDVSSGSSSEKSTSGGYVFHTYLPTIHSTADQDDPYFIGSTMATRDQDSSMDPRGNSLTVTDGSKLTEHSSGNQDSGLNSTSRPGGKPRVPE
As to B1, the binding result is “binds”.
